According to the supplement of paper PMC10849652:
This is one part of the list.

Protein sequences, listed by entry. Tags and fused reporters are not part of them. Lines headed by an entry give the natural chain unless they say otherwise; changes in a name come on top.
UniProt P04424, whole entry, looked up: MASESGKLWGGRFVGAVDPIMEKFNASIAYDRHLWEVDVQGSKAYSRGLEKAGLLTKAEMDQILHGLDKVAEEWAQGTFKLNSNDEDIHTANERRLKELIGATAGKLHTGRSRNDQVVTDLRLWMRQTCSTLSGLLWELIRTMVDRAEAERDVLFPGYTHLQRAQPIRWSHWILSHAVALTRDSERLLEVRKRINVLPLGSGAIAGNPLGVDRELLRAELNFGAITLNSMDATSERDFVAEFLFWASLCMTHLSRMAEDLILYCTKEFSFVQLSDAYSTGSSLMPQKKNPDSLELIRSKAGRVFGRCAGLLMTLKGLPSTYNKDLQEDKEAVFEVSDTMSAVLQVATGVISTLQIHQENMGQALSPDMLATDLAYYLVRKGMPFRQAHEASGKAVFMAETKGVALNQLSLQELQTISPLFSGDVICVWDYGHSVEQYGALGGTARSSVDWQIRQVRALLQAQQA
UniProt Q9BZE9, whole entry, looked up: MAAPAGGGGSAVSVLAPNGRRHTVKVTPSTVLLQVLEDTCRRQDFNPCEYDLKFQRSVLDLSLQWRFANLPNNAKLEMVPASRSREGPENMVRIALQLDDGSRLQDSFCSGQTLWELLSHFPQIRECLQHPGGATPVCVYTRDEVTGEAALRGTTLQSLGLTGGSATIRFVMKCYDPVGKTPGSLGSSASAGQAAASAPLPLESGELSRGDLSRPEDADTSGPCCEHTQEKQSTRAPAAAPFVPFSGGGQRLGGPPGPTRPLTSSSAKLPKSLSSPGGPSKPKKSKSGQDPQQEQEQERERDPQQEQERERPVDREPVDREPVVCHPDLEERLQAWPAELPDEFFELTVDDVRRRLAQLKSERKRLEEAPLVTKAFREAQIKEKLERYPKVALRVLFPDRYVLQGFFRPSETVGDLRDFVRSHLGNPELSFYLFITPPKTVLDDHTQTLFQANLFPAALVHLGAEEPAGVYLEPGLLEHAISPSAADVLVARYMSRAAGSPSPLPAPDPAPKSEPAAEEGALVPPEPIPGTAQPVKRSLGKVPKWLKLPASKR
UniProt P36543, whole entry, looked up: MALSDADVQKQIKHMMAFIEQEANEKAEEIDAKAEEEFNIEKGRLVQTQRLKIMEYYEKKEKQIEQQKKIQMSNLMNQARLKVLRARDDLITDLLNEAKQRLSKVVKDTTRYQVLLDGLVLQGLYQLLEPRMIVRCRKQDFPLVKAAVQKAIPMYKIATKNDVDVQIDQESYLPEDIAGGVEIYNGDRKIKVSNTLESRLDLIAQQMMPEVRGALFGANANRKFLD
UniProt Q8N6S5: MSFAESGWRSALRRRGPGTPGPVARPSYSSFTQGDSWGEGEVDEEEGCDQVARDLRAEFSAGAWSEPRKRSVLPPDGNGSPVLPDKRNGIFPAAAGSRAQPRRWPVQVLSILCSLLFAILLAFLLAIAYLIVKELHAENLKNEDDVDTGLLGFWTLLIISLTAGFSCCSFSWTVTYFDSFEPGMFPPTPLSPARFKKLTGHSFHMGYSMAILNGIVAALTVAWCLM
UniProt Q96BM9: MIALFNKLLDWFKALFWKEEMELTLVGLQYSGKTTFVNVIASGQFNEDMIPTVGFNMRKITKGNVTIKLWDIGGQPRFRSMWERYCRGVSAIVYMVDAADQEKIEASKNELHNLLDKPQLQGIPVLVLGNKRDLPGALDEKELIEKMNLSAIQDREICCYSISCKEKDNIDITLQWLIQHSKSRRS
UniProt P36405: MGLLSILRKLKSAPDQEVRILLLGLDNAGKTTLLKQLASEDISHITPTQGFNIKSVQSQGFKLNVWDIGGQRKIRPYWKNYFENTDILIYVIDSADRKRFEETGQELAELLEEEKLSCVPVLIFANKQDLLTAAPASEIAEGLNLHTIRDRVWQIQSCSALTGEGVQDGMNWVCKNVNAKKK
UniProt Q15904, whole entry, looked up: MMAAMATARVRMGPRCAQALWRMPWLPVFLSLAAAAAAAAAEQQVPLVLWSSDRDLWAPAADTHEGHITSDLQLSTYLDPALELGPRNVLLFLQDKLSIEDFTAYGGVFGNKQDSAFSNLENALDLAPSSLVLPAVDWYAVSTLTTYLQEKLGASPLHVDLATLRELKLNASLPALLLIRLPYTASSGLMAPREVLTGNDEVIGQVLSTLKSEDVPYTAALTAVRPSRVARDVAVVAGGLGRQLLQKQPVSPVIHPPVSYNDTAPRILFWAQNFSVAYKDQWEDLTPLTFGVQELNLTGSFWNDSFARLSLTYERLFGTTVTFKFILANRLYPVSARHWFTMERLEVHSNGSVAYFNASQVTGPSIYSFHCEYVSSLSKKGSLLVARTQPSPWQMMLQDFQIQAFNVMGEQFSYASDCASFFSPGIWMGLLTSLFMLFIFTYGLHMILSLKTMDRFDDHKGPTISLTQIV
UniProt O95671: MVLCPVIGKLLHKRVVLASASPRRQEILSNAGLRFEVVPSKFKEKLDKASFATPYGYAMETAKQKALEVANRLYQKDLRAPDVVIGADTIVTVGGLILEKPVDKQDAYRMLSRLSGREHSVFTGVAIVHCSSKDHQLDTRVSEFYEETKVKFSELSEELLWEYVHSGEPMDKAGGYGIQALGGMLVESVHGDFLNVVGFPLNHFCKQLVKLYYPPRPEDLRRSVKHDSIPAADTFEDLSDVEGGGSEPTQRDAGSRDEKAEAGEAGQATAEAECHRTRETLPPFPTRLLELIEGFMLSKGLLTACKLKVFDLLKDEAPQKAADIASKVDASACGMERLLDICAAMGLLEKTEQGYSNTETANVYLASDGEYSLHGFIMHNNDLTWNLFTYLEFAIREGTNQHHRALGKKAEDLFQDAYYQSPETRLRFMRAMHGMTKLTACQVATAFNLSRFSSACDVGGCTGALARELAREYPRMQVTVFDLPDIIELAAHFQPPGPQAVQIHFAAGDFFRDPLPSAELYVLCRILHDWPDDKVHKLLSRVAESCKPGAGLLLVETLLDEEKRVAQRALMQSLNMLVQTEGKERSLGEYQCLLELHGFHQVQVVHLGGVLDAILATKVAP
UniProt Q9UI12, whole entry, looked up: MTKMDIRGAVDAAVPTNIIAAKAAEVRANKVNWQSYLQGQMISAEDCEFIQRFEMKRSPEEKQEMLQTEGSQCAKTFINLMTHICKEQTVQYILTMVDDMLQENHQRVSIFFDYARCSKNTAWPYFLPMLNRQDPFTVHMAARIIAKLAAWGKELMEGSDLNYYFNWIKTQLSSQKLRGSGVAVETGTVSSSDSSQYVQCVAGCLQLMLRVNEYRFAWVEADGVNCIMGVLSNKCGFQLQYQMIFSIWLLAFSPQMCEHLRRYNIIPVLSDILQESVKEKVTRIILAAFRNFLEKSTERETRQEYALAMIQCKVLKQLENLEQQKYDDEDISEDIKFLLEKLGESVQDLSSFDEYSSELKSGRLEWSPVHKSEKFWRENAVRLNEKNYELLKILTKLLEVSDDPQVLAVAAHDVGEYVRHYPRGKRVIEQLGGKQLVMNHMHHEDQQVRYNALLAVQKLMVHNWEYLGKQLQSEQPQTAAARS
UniProt Q9Y2Y0: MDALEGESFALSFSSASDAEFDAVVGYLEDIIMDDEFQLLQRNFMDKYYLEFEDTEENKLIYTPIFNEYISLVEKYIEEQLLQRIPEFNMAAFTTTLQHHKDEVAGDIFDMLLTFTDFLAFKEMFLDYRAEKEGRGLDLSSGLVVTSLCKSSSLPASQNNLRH
UniProt O75787, whole entry, looked up: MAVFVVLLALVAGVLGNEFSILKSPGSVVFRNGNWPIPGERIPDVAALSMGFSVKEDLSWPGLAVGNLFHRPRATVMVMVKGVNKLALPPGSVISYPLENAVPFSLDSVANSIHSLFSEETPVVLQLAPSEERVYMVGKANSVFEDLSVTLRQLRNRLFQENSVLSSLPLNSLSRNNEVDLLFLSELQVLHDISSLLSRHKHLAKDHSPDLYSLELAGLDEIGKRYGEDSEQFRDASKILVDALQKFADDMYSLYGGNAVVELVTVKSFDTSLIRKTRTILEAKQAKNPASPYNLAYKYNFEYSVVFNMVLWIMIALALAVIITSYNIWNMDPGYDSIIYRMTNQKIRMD
UniProt P23634: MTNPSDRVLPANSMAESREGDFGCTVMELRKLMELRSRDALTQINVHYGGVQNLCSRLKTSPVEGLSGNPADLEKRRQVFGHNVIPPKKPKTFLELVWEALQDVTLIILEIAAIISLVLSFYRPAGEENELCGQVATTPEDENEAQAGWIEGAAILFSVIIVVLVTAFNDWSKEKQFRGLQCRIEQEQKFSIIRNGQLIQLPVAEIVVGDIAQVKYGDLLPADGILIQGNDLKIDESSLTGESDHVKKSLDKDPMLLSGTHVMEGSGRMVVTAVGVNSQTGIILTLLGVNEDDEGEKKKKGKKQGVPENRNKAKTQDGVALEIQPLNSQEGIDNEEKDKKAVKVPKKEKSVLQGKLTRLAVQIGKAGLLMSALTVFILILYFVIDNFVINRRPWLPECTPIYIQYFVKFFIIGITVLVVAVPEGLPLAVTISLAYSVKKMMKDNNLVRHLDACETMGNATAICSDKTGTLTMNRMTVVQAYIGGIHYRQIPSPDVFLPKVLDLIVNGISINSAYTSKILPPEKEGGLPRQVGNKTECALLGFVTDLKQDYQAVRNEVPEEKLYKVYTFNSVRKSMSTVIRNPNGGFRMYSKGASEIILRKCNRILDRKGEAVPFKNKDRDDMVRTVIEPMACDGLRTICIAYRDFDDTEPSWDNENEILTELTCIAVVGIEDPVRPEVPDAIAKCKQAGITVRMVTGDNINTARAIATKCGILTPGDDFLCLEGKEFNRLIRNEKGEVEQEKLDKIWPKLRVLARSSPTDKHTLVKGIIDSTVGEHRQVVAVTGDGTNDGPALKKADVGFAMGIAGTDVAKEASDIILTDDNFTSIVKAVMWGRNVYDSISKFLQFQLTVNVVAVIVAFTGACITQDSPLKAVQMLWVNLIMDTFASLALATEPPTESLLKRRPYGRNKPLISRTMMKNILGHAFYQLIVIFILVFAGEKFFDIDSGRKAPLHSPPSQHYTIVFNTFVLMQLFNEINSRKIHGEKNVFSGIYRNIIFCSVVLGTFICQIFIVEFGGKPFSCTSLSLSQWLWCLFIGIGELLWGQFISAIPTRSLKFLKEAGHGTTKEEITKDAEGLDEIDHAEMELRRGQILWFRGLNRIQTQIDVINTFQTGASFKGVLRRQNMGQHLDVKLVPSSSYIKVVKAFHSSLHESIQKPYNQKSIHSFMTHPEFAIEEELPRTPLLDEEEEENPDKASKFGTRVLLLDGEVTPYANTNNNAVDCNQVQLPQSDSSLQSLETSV
UniProt Q9H7F0: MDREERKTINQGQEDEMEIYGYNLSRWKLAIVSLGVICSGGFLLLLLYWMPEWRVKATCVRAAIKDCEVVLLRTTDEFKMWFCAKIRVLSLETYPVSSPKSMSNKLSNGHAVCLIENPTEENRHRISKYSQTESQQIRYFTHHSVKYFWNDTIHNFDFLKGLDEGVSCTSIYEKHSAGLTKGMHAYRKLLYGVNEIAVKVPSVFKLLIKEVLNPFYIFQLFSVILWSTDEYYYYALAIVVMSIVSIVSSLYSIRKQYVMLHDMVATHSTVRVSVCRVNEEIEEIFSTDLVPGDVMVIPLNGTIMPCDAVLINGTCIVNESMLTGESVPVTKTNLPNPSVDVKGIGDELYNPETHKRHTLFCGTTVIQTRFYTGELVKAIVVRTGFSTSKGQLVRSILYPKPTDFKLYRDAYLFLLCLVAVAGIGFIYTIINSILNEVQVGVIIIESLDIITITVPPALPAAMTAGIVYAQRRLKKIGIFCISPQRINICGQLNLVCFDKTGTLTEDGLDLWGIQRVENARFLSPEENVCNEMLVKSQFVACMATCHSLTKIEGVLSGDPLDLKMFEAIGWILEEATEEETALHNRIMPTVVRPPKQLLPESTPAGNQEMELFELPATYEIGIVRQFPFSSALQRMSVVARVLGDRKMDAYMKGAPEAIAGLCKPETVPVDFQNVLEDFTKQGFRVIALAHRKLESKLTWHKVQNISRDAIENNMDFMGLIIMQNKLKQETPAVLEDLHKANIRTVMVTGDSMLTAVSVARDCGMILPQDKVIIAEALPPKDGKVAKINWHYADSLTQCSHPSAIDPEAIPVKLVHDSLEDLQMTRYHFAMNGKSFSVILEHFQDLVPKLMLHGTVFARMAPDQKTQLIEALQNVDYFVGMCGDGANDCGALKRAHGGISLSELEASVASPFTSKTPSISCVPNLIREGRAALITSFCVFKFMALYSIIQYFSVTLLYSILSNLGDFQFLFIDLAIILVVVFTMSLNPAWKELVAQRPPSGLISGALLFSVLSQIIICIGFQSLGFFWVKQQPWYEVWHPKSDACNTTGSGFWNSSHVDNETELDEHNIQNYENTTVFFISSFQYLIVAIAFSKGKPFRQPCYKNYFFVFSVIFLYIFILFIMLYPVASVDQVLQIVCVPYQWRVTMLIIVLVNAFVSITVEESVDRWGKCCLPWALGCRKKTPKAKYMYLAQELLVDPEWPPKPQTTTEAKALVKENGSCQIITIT
UniProt P18847: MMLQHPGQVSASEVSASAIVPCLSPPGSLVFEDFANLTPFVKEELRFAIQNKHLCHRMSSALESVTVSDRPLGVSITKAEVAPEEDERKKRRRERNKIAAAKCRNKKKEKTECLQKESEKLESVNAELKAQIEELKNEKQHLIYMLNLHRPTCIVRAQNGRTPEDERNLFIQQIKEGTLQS

Key:
Experiment in all cases: log2 fold change, soluble protein after heating vs DMSO (PISA); higher = thermal stabilisation; K562 cells, 10 uM, 30 min; active = over 0.2 and 3.5 SD of the protein, either way, in both replicates (recomputed)
[1] = compound: NC(=O)Nc1cc(-c2cccc(F)c2)sc1C(=O)N[C@H]1CCCNC1
Method in brief: (§1)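 Quantification of soluble protein used TMTpro 16plex LC-MS/MS, with channel sums equalised. Samples were the supernatant after 21,000xg for 90 min of pooled aliquots from K562 cells (2×10^6 cells/mL) treated with 10 μM compound for 30 min, heated for 3 min over 48°C-58°C, and extracted in PBS with 0.5% NP-40 at 4°C. Values, from duplicates, describe thermal stability against control samples on a log2 fold-change scale.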

[2] = compound: NC(=O)c1cnc(N[C@@H]2CCCC[C@@H]2N)nc1Nc1cccc(-n2nccn2)c1
Method in brief: as §1

[3] = compound: NC1(c2ccc(-c3nc4ccn5c(=O)[nH]nc5c4cc3-c3ccccc3)cc2)CCC1
Method in brief: as §1

[4] = compound: NCC(=O)Nc1ccc(-n2nc(C(F)(F)F)cc2-c2ccc3c(ccc4ccccc43)c2)cc1
Method in brief: as §1

entinostat = compound: Nc1ccccc1NC(=O)c1ccc(CNC(=O)OCc2cccnc2)cc1 [entinostat]
Method in brief: as §1

vorinostat = compound: O=C(CCCCCCC(=O)Nc1ccccc1)NO [vorinostat]
Method in brief: as §1

citarinostat = compound: O=C(CCCCCCNC(=O)c1cnc(N(c2ccccc2)c2ccccc2Cl)nc1)NO [citarinostat]
Method in brief: as §1

silmitasertib = compound: O=C(O)c1ccc2c(c1)nc(Nc1cccc(Cl)c1)c1ccncc12 [silmitasertib]
Method in brief: as §1

[5] = compound: O=C1NC(=O)C(c2cnc3ccccn23)=C1c1cn2c3c(cc(F)cc13)CN(C(=O)N1CCCCC1)CC2
Method in brief: as §1

[6] = compound: c1cc(OCCN2CCCCC2)cc(-c2n[nH]c3ccc(-c4nnc[nH]4)cc23)c1
Method in brief: as §1

Measured: log2 fold change

ASL (UniProt P04424)
inactive: [1] 0.011 | [2] -0.004 | [3] -0.043 | [4] 0.006 | entinostat -0.027 | vorinostat 0.026 | citarinostat -0.009 | silmitasertib -0.024 | [5] -0.009 | [6] 0.007

ASPSCR1 isoform 2 (UniProt Q9BZE9)
inactive: [1] -0.052 | [2] -0.046 | [3] -0.054 | [4] -0.006 | entinostat -0.034 | vorinostat -0.001 | citarinostat -0.006 | silmitasertib 0.103 | [5] -0.083 | [6] -0.013

ATP6V1E1 (UniProt P36543)
inactive: [1] -0.046 | [2] -0.105 | [3] -0.037 | [4] -0.072 | entinostat 0.033 | vorinostat -0.005 | citarinostat -0.011 | silmitasertib -0.015 | [5] -0.076 | [6] -0.069

ARL6IP6 (UniProt Q8N6S5)
inactive: [1] -0.085 | [2] -0.125 | [3] -0.073 | [4] -0.015 | entinostat -0.021 | vorinostat -0.007 | citarinostat -0.058 | silmitasertib -0.014 | [5] 0.011 | [6] -0.059

ARL8A (UniProt Q96BM9)
inactive: [1] -0.012 | [2] -0.093 | [3] 0.04 | [4] 0 | entinostat 0.087 | vorinostat -0.008 | citarinostat 0.063 | silmitasertib -0.082 | [5] -0.098 | [6] -0.03

ARL3 (UniProt P36405)
inactive: [1] 0.02 | [2] -0.005 | [3] -0.051 | [4] 0.006 | entinostat -0.024 | vorinostat -0.013 | citarinostat 0.05 | silmitasertib 0 | [5] -0.001 | [6] -0.022

ATAD1 (UniProt Q8NBU5)
inactive: [1] -0.036 | [2] -0.056 | [3] -0.015 | [4] -0.009 | entinostat 0.038 | vorinostat 0.012 | citarinostat 0.032 | silmitasertib 0.012 | [5] 0.197 | [6] -0.053

ATP6V1D (UniProt Q9Y5K8)
inactive: [1] 0.028 | [2] -0.012 | [3] -0.056 | [4] 0.027 | entinostat -0.034 | vorinostat 0.018 | citarinostat 0.024 | silmitasertib -0.026 | [5] 0.044 | [6] -0.009

ARNT (UniProt P27540)
inactive: [1] -0.059 | [2] 0.001 | [3] -0.058 | [4] 0.105 | entinostat -0.056 | vorinostat -0.027 | citarinostat 0.054 | silmitasertib 0.024 | [5] -0.291 | [6] 0.002

ATP6AP1 (UniProt Q15904)
inactive: [1] -0.033 | [2] -0.208 | [3] -0.149 | [4] -0.04 | entinostat 0.025 | vorinostat 0.063 | citarinostat 0.035 | silmitasertib 0.043 | [5] -0.005 | [6] -0.087

ATP1A3 isoform 3 (UniProt P13637)
inactive: [1] -0.049 | [2] 0.106 | [3] 0.052 | [4] 0.003 | entinostat -0.039 | vorinostat -0.032 | citarinostat 0.011 | silmitasertib 0.002 | [5] 0.012 | [6] -0.04

ASMTL (UniProt O95671)
inactive: [1] -0.04 | [2] -0.141 | [3] -0.256 | [4] -0.227 | entinostat 0.001 | vorinostat 0.075 | citarinostat -0.086 | silmitasertib -0.002 | [5] 0.084 | [6] -0.027

ATP6V1H (UniProt Q9UI12)
inactive: [1] 0 | [2] -0.141 | [3] -0.201 | [4] -0.094 | entinostat 0.046 | vorinostat 0.032 | citarinostat 0.031 | silmitasertib 0.005 | [5] 0.025 | [6] -0.062

ATP5PO (UniProt P48047)
inactive: [1] 0.012 | [2] 0.023 | [3] 0.016 | [4] 0.069 | entinostat -0.008 | vorinostat -0.039 | citarinostat -0.005 | silmitasertib -0.043 | [5] 0.001 | [6] 0.015

ARL2BP (UniProt Q9Y2Y0)
inactive: [1] -0.056 | [2] -0.108 | [3] -0.129 | [4] -0.088 | entinostat -0.057 | vorinostat 0.132 | citarinostat 0.006 | silmitasertib -0.02 | [5] 0.108 | [6] 0.046

ATP6AP2 (UniProt O75787)
inactive: [1] -0.017 | [2] -0.007 | [3] -0.084 | [4] 0.009 | entinostat 0.023 | vorinostat -0.017 | citarinostat 0.009 | silmitasertib 0.047 | [5] 0.043 | [6] -0.05

ATP2B4 (UniProt P23634)
inactive: [1] -0.103 | [2] 0.132 | [3] 0.074 | [4] 0.011 | entinostat -0.102 | vorinostat -0.079 | citarinostat 0.007 | silmitasertib 0.014 | [5] -0.197 | [6] -0.071

ASCC3 (UniProt Q8N3C0)
inactive: [1] -0.23 | [2] -0.043 | [3] 0.076 | [4] 0.075 | entinostat 0.196 | vorinostat 0.033 | citarinostat 0.018 | silmitasertib 0.071 | [5] 0.307 | [6] 0.011

ATP13A3 (UniProt Q9H7F0)
inactive: [1] -0.072 | [2] 0.027 | [3] -0.082 | [4] 0.039 | entinostat 0.026 | vorinostat -0.026 | citarinostat -0.033 | silmitasertib 0.048 | [5] 0.02 | [6] -0.099

2 consecutive entries from above, quoted:
ARL6IP6 (UniProt Q8N6S5)
inactive: [1] -0.085 | [2] -0.125 | [3] -0.073 | [4] -0.015 | entinostat -0.021 | vorinostat -0.007 | citarinostat -0.058 | silmitasertib -0.014 | [5] 0.011 | [6] -0.059

ARL8A (UniProt Q96BM9)
inactive: [1] -0.012 | [2] -0.093 | [3] 0.04 | [4] 0 | entinostat 0.087 | vorinostat -0.008 | citarinostat 0.063 | silmitasertib -0.082 | [5] -0.098 | [6] -0.03

(further entries)

ARSA (UniProt P15289)
inactive: [1] 0.055 | [2] -0.058 | [3] 0.058 | [4] 0 | entinostat -0.026 | vorinostat -0.018 | silmitasertib -0.002 | [5] -0.051

ATF3 (UniProt P18847)
inactive: [1] -0.2 | [2] -0.061 | [4] 0.003 | entinostat -0.018 | citarinostat 0.126 | [5] -0.03 | [6] -0.15

ATP1B1 (UniProt P05026)
inactive: [1] 0.05 | [2] 0.117 | [3] -0.04 | [4] 0.035 | entinostat -0.134 | vorinostat -0.041 | citarinostat -0.071 | silmitasertib 0.037 | [6] 0.035

ARPIN isoform 2 (UniProt Q7Z6K5)
inactive: [2] 0.031 | [3] -0.213 | [4] 0 | vorinostat 0.053 | silmitasertib -0.015
